# The other results are listed elsewhere or left out. Many values rest on one well or one pass, so single values are uncertain.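 Cells were imaged in 1,536-well plates, and nuclei stained with an antibody against cleaved PARP were counted against all DNA-stained nuclei to give the apoptosis fraction. Screening doses were chosen to leave most cells alive, and resting and induced cleaved-PARP levels differ strongly between cell lines.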
# Test system: CBRC014 (line from a melanoma biopsy)
# Assay: cleaved PARP positive nuclei fraction relative to DMSO control; melanoma cells; higher = more apoptosis
# Details: library dose: low library concentration; 72 h
row,SMILES,cleaved PARP positive nuclei fraction [%]
1,"C=C(c1ccc(C(=O)O)cc1)c1cc2c(cc1C)C(C)(C)CCC2(C)C [Bexarotene] + COc1ccc(COc2ccc(Cc3cnc(N)nc3N)cc2OC)cc1 [GW2580] (first compound 2 µM, partner dose 1 µM)",110
2,"Nc1nc(F)nc2c1ncn2[C@@H]1O[C@H](CO)[C@@H](O)[C@@H]1O [fludarabine] + O=C(Nc1ccccc1)c1cc([N+](=O)[O-])ccc1Cl [GW9662] (first compound 0.2 µM, partner dose 2 µM)",82.9
3,"CC(C)C[C@H](NC(=O)[C@H](Cc1ccccc1)NC(=O)c1cnccn1)B(O)O [Bortezomib] + COC(=O)c1sccc1S(=O)(=O)Nc1ccc(Nc2ccccc2)cc1OC [GSK0660] (first compound 0.001 µM, partner dose 1 µM)",262
4,"CN1CCN(c2ccc3nc(-c4c(N)c5c(F)cccc5[nH]c4=O)[nH]c3c2)CC1 [Dovitinib] + COc1ccc(COc2ccc(Cc3cnc(N)nc3N)cc2OC)cc1 [GW2580] (first compound 0.1 µM, partner dose 1 µM)",88.8
5,"Cn1c(=O)n(-c2ccc(C(C)(C)C#N)cc2)c2c3cc(-c4cnc5ccccc5c4)ccc3ncc21 + Cc1cc([N+](=O)[O-])ccc1NS(=O)(=O)c1cc(Cl)ccc1Cl [FH535] (first compound 0.004 µM, partner dose 1 µM)",128
6,"CCCS(=O)(=O)Nc1ccc(F)c(C(=O)c2c[nH]c3ncc(Cl)cc23)c1F + Oc1nc(-c2ccc(C(F)(F)F)cc2)nc2c1CSCC2 [XAV939] (first compound 0.08 µM, partner dose 2 µM)",112
